Data from patent US20250074896A1, “ARYLTETRAHYDROPYRIDAZINE DERIVATIVE OR SALT THEREOF AND INSECTICIDAL AGENT CONTAINING THE COMPOUND AND METHOD FOR USING SAME” (NIHON NOHYAKU CO., LTD., priority 2021, published 2025).
Some results were stated once for a whole list of compounds, not compound by compound.

Tests used:
Assay type in all cases: in vivo
[1] = tested on: Diamondback moth (Plutella xylostella); test: Insecticidal test on diamondback moth (dip treatment of Chinese cabbage seedlings with laid eggs); conditions: dip about 30 seconds, 6 days after treatment, 25° C.
[2] = tested on: Western Flower Thrips (Frankliniella occidentalis); test: Insecticidal test on western flower thrips (kidney bean leaf pieces, hatched larvae); conditions: 4 days after the treatment
[3] = tested on: Small Brown Planthopper (Laodelphax striatellus); test: Insecticidal test on small brown planthopper (dipped rice seedlings, 3rd-instar larvae); conditions: rice seedlings dipped 30 seconds, 8 days after inoculation

COC(=O)N1C(=O)C(C(=O)Nc2cccc(OC)c2)=C(O)CN1c1cnc(C#N)c(Cl)c1 [3-471]
A (the mortality rate is 100%): insecticidal efficacy (corrected mortality rate) against diamondback moth ([1]; 500 ppm) | insecticidal efficacy (corrected mortality rate) against western flower thrips ([2]; 50 ppm) | insecticidal efficacy (corrected mortality rate) against western flower thrips ([2]; 500 ppm) | insecticidal efficacy (corrected mortality rate) against small brown planthopper ([3]; 50 ppm) | insecticidal efficacy (corrected mortality rate) against small brown planthopper ([3]; 500 ppm)

COCCOC(=O)N1C(=O)C(C(=O)Nc2ccc(F)cc2)=C([S+](C)[O-])CN1c1ccc(C(F)(F)F)nc1 (stereo not drawn) [5-14]
A (the mortality rate is 100%): insecticidal efficacy (corrected mortality rate) against diamondback moth ([1]; 50 ppm) | insecticidal efficacy (corrected mortality rate) against diamondback moth ([1]; 500 ppm) | insecticidal efficacy (corrected mortality rate) against western flower thrips ([2]; 50 ppm) | insecticidal efficacy (corrected mortality rate) against western flower thrips ([2]; 500 ppm) | insecticidal efficacy (corrected mortality rate) against small brown planthopper ([3]; 50 ppm) | insecticidal efficacy (corrected mortality rate) against small brown planthopper ([3]; 500 ppm)

O=C(Nc1ccc(F)cn1)C1=C(O)CN(c2ccc(Cl)cn2)NC1=O [1-121]
A (the mortality rate is 100%): insecticidal efficacy (corrected mortality rate) against diamondback moth ([1]; 50 ppm) | insecticidal efficacy (corrected mortality rate) against diamondback moth ([1]; 500 ppm) | insecticidal efficacy (corrected mortality rate) against western flower thrips ([2]; 50 ppm) | insecticidal efficacy (corrected mortality rate) against western flower thrips ([2]; 500 ppm) | insecticidal efficacy (corrected mortality rate) against small brown planthopper ([3]; 50 ppm) | insecticidal efficacy (corrected mortality rate) against small brown planthopper ([3]; 500 ppm)

COc1ccc(NC(=O)C2=C(O)CN(c3ccc(Cl)nc3)NC2=O)nc1 [1-128]
A (the mortality rate is 100%): insecticidal efficacy (corrected mortality rate) against diamondback moth ([1]; 500 ppm) | insecticidal efficacy (corrected mortality rate) against western flower thrips ([2]; 500 ppm) | insecticidal efficacy (corrected mortality rate) against small brown planthopper ([3]; 500 ppm)

N#Cc1ccc(N2CC(O)=C(C(=O)Nc3cc(F)cc(F)c3)C(=O)N2)cn1 [1-328]
A (the mortality rate is 100%): insecticidal efficacy (corrected mortality rate) against diamondback moth ([1]; 50 ppm) | insecticidal efficacy (corrected mortality rate) against diamondback moth ([1]; 500 ppm) | insecticidal efficacy (corrected mortality rate) against western flower thrips ([2]; 50 ppm) | insecticidal efficacy (corrected mortality rate) against western flower thrips ([2]; 500 ppm) | insecticidal efficacy (corrected mortality rate) against small brown planthopper ([3]; 50 ppm) | insecticidal efficacy (corrected mortality rate) against small brown planthopper ([3]; 500 ppm)

CC(C)COC(=O)N1C(=O)C(C(=O)Nc2ccc(F)cc2)=C(O)CN1c1ccc(Cl)nc1 [3-279]
A (the mortality rate is 100%): insecticidal efficacy (corrected mortality rate) against diamondback moth ([1]; 50 ppm) | insecticidal efficacy (corrected mortality rate) against diamondback moth ([1]; 500 ppm) | insecticidal efficacy (corrected mortality rate) against western flower thrips ([2]; 50 ppm) | insecticidal efficacy (corrected mortality rate) against western flower thrips ([2]; 500 ppm) | insecticidal efficacy (corrected mortality rate) against small brown planthopper ([3]; 50 ppm) | insecticidal efficacy (corrected mortality rate) against small brown planthopper ([3]; 500 ppm)

N#Cc1ccc(N2CC(O)=C(C(=O)Nc3ccc(F)cc3)C(=O)N2)nn1 [1-146]
A (the mortality rate is 100%): insecticidal efficacy (corrected mortality rate) against diamondback moth ([1]; 50 ppm) | insecticidal efficacy (corrected mortality rate) against diamondback moth ([1]; 500 ppm) | insecticidal efficacy (corrected mortality rate) against western flower thrips ([2]; 500 ppm) | insecticidal efficacy (corrected mortality rate) against small brown planthopper ([3]; 500 ppm)

Cc1cc(NC(=O)C2=C(O)CN(c3ccc(C(F)(F)F)cn3)NC2=O)ccc1F [1-93]
A (the mortality rate is 100%): insecticidal efficacy (corrected mortality rate) against diamondback moth ([1]; 50 ppm) | insecticidal efficacy (corrected mortality rate) against diamondback moth ([1]; 500 ppm) | insecticidal efficacy (corrected mortality rate) against western flower thrips ([2]; 50 ppm) | insecticidal efficacy (corrected mortality rate) against western flower thrips ([2]; 500 ppm) | insecticidal efficacy (corrected mortality rate) against small brown planthopper ([3]; 500 ppm)

Cc1cc(F)ccc1NC(=O)C1=C(O)CN(c2cnc(C#N)c(C)c2)NC1=O [1-381]
A (the mortality rate is 100%): insecticidal efficacy (corrected mortality rate) against diamondback moth ([1]; 50 ppm) | insecticidal efficacy (corrected mortality rate) against diamondback moth ([1]; 500 ppm) | insecticidal efficacy (corrected mortality rate) against western flower thrips ([2]; 50 ppm) | insecticidal efficacy (corrected mortality rate) against western flower thrips ([2]; 500 ppm) | insecticidal efficacy (corrected mortality rate) against small brown planthopper ([3]; 50 ppm) | insecticidal efficacy (corrected mortality rate) against small brown planthopper ([3]; 500 ppm)

CCn1ccc(NC(=O)C2=C(O)CN(c3ccc(C#N)cc3)NC2=O)n1 [1-268]
A (the mortality rate is 100%): insecticidal efficacy (corrected mortality rate) against diamondback moth ([1]; 500 ppm) | insecticidal efficacy (corrected mortality rate) against western flower thrips ([2]; 500 ppm) | insecticidal efficacy (corrected mortality rate) against small brown planthopper ([3]; 50 ppm) | insecticidal efficacy (corrected mortality rate) against small brown planthopper ([3]; 500 ppm)

Cc1cccc(NC(=O)C2=C(O)CN(c3ccc(C#N)cn3)NC2=O)n1 [1-386]
A (the mortality rate is 100%): insecticidal efficacy (corrected mortality rate) against diamondback moth ([1]; 50 ppm) | insecticidal efficacy (corrected mortality rate) against diamondback moth ([1]; 500 ppm) | insecticidal efficacy (corrected mortality rate) against western flower thrips ([2]; 50 ppm) | insecticidal efficacy (corrected mortality rate) against western flower thrips ([2]; 500 ppm) | insecticidal efficacy (corrected mortality rate) against small brown planthopper ([3]; 50 ppm) | insecticidal efficacy (corrected mortality rate) against small brown planthopper ([3]; 500 ppm)

Cc1cc(N2CC(O)=C(C(=O)Nc3cccc(C#N)c3)C(=O)N2)cnc1C#N [1-289]
A (the mortality rate is 100%): insecticidal efficacy (corrected mortality rate) against diamondback moth ([1]; 50 ppm) | insecticidal efficacy (corrected mortality rate) against diamondback moth ([1]; 500 ppm) | insecticidal efficacy (corrected mortality rate) against western flower thrips ([2]; 50 ppm) | insecticidal efficacy (corrected mortality rate) against western flower thrips ([2]; 500 ppm) | insecticidal efficacy (corrected mortality rate) against small brown planthopper ([3]; 50 ppm) | insecticidal efficacy (corrected mortality rate) against small brown planthopper ([3]; 500 ppm)

COCCNC(=O)N1C(=O)C(C(=O)Nc2ccc(F)cc2)=C(O)CN1c1ccc(C(F)(F)F)nc1 [3-74]
A (the mortality rate is 100%): insecticidal efficacy (corrected mortality rate) against diamondback moth ([1]; 50 ppm) | insecticidal efficacy (corrected mortality rate) against diamondback moth ([1]; 500 ppm) | insecticidal efficacy (corrected mortality rate) against western flower thrips ([2]; 50 ppm) | insecticidal efficacy (corrected mortality rate) against western flower thrips ([2]; 500 ppm) | insecticidal efficacy (corrected mortality rate) against small brown planthopper ([3]; 50 ppm) | insecticidal efficacy (corrected mortality rate) against small brown planthopper ([3]; 500 ppm)

Cc1cc(N2CC(O)=C(C(=O)Nc3ccc(Cl)cn3)C(=O)N2)cnc1C#N [1-118]
A (the mortality rate is 100%): insecticidal efficacy (corrected mortality rate) against diamondback moth ([1]; 50 ppm) | insecticidal efficacy (corrected mortality rate) against diamondback moth ([1]; 500 ppm) | insecticidal efficacy (corrected mortality rate) against western flower thrips ([2]; 50 ppm) | insecticidal efficacy (corrected mortality rate) against western flower thrips ([2]; 500 ppm) | insecticidal efficacy (corrected mortality rate) against small brown planthopper ([3]; 50 ppm) | insecticidal efficacy (corrected mortality rate) against small brown planthopper ([3]; 500 ppm)

COC(=O)N1C(=O)C(C(=O)Nc2ccc(F)cc2)=C(O)CN1c1cnc2ccccc2n1 [3-246]
A (the mortality rate is 100%): insecticidal efficacy (corrected mortality rate) against diamondback moth ([1]; 500 ppm) | insecticidal efficacy (corrected mortality rate) against western flower thrips ([2]; 50 ppm) | insecticidal efficacy (corrected mortality rate) against western flower thrips ([2]; 500 ppm) | insecticidal efficacy (corrected mortality rate) against small brown planthopper ([3]; 50 ppm) | insecticidal efficacy (corrected mortality rate) against small brown planthopper ([3]; 500 ppm)

COC(=O)N1C(=O)C(C(=O)Nc2ccc(OC)cn2)=C(O)CN1c1ccc(C(F)(F)F)nc1 [3-138]
A (the mortality rate is 100%): insecticidal efficacy (corrected mortality rate) against diamondback moth ([1]; 500 ppm) | insecticidal efficacy (corrected mortality rate) against western flower thrips ([2]; 50 ppm) | insecticidal efficacy (corrected mortality rate) against western flower thrips ([2]; 500 ppm) | insecticidal efficacy (corrected mortality rate) against small brown planthopper ([3]; 50 ppm) | insecticidal efficacy (corrected mortality rate) against small brown planthopper ([3]; 500 ppm)

CC(C)(C)OC(=O)N1C(=O)C(C(=S)Nc2ccc(F)cc2)=C(O)CN1c1ccc(C#N)nc1 [4-55]
A (the mortality rate is 100%): insecticidal efficacy (corrected mortality rate) against diamondback moth ([1]; 50 ppm) | insecticidal efficacy (corrected mortality rate) against diamondback moth ([1]; 500 ppm) | insecticidal efficacy (corrected mortality rate) against western flower thrips ([2]; 50 ppm) | insecticidal efficacy (corrected mortality rate) against western flower thrips ([2]; 500 ppm) | insecticidal efficacy (corrected mortality rate) against small brown planthopper ([3]; 50 ppm) | insecticidal efficacy (corrected mortality rate) against small brown planthopper ([3]; 500 ppm)

CC(C)COC(=O)N1C(=O)C(C(=O)NC2CC2)=C(O)CN1c1ccc(C(F)(F)F)nc1 [3-273]
A (the mortality rate is 100%): insecticidal efficacy (corrected mortality rate) against diamondback moth ([1]; 500 ppm) | insecticidal efficacy (corrected mortality rate) against western flower thrips ([2]; 50 ppm) | insecticidal efficacy (corrected mortality rate) against western flower thrips ([2]; 500 ppm) | insecticidal efficacy (corrected mortality rate) against small brown planthopper ([3]; 50 ppm) | insecticidal efficacy (corrected mortality rate) against small brown planthopper ([3]; 500 ppm)

COC(=O)N1C(=O)C(C(=O)Nc2ccc(F)cc2)=C(O)CN1c1cnc(C#N)c(F)c1 [3-171]
A (the mortality rate is 100%): insecticidal efficacy (corrected mortality rate) against diamondback moth ([1]; 50 ppm) | insecticidal efficacy (corrected mortality rate) against diamondback moth ([1]; 500 ppm) | insecticidal efficacy (corrected mortality rate) against western flower thrips ([2]; 50 ppm) | insecticidal efficacy (corrected mortality rate) against western flower thrips ([2]; 500 ppm) | insecticidal efficacy (corrected mortality rate) against small brown planthopper ([3]; 50 ppm) | insecticidal efficacy (corrected mortality rate) against small brown planthopper ([3]; 500 ppm)
